Among the data in the supplement of paper PMC12819154, “High-throughput peptide-centric local stability assay extends protein–ligand identification to membrane proteins, tissues and bacteria” (Nature Structural & Molecular Biology, 2025) are log2 fold change values, retold here.

The chains behind the UniProt entries cited, without tags or fusion partners. Where a name states a change or a piece, a line headed by the entry shows the natural chain unless it says otherwise.
UniProt Q8R2V2: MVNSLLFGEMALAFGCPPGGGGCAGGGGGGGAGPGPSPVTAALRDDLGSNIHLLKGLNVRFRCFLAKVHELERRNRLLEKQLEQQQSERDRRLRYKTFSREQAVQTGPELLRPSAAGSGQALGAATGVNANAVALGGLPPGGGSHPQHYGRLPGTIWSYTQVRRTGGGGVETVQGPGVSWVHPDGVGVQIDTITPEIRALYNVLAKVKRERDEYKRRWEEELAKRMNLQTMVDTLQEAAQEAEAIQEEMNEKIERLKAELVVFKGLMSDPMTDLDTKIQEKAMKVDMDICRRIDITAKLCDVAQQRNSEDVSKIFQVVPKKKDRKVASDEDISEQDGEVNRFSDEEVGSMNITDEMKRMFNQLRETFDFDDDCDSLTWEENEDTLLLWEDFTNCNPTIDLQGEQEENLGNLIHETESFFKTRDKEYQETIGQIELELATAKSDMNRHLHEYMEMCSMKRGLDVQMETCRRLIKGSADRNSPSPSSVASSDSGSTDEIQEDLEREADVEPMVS
UniProt Q8VBX0: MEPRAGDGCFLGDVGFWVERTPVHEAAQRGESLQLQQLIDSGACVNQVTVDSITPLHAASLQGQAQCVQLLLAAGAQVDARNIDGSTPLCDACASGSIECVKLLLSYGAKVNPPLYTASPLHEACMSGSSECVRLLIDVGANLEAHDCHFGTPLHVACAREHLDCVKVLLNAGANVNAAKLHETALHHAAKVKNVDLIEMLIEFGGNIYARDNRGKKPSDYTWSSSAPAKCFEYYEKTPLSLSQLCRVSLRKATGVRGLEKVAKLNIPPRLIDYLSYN
UniProt Q8VD57: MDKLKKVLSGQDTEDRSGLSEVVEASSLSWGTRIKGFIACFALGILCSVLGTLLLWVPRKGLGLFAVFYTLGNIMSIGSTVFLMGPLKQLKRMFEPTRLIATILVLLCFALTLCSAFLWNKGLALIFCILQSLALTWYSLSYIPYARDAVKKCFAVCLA
UniProt Q8R3V5: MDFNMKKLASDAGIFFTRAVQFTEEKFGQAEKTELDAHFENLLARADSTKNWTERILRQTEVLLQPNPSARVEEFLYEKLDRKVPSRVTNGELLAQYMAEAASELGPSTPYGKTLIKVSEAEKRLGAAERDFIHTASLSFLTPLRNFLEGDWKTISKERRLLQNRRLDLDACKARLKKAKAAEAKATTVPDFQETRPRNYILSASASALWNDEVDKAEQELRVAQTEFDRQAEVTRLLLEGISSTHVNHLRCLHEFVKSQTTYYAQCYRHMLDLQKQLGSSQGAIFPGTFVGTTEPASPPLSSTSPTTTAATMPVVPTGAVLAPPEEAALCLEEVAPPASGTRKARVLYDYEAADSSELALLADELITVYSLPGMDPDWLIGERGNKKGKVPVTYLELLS
UniProt Q8VEE0: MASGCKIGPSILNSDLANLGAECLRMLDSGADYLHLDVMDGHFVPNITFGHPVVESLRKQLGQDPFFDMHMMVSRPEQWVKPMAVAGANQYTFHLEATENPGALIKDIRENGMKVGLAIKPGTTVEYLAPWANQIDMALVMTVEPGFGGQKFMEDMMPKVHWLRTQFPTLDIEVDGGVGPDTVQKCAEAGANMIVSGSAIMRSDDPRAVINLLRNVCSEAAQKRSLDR
UniProt Q8R3B1: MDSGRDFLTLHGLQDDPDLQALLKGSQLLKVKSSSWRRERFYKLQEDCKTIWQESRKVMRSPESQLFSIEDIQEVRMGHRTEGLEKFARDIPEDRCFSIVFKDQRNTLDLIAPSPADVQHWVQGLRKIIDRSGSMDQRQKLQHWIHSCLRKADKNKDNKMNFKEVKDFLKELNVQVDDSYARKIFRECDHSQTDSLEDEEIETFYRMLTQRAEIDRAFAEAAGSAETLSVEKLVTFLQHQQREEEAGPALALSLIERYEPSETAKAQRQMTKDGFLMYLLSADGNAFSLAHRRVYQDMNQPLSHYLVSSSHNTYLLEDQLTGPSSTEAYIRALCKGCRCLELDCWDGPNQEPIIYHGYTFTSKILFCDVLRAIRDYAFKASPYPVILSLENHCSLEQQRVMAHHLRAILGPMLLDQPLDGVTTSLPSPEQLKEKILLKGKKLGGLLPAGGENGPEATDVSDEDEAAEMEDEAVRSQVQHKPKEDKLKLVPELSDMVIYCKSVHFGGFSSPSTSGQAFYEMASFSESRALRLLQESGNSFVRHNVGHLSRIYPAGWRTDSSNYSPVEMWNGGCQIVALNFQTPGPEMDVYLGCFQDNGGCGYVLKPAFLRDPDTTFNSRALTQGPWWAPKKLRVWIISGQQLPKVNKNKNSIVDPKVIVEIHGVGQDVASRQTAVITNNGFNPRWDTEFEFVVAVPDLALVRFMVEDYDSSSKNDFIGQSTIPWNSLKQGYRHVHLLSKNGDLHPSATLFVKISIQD
UniProt Q8R5M8: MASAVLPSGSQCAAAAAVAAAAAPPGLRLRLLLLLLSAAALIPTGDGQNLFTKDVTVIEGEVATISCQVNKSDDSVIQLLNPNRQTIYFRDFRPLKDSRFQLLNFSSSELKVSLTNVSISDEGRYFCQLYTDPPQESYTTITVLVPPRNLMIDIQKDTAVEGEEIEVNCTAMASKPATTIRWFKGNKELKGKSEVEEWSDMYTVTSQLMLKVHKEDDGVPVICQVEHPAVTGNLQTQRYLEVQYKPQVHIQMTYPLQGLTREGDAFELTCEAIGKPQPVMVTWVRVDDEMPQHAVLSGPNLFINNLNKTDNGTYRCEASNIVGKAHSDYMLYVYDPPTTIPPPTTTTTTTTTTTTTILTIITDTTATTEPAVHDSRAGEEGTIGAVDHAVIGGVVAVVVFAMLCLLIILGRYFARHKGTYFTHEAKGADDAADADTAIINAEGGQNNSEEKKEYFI
UniProt Q8VDH1: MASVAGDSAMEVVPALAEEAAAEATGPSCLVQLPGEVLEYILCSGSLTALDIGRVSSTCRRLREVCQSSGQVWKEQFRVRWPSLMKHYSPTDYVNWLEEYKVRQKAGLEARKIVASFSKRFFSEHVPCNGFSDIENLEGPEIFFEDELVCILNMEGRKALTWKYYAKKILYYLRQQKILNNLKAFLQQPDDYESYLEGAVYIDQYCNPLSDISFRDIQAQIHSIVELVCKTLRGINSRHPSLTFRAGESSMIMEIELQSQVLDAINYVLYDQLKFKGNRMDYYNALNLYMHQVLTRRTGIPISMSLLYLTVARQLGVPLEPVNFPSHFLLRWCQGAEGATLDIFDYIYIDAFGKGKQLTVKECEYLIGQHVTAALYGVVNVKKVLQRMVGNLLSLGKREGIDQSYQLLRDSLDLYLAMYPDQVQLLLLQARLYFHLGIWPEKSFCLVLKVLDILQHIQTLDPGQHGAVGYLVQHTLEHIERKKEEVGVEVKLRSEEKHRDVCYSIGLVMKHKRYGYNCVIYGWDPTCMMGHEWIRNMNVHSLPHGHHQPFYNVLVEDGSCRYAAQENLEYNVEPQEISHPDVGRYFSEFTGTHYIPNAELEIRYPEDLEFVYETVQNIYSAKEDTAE
UniProt Q8VCH7: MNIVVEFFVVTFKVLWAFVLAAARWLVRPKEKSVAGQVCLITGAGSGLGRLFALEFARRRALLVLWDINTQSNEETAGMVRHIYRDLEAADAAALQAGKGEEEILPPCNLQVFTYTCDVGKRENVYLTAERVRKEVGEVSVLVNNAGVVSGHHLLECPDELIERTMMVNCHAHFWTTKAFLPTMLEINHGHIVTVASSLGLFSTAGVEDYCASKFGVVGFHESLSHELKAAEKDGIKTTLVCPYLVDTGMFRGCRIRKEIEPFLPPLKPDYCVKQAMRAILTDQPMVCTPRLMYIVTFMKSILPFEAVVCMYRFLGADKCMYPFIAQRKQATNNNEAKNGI
UniProt Q8R2V5: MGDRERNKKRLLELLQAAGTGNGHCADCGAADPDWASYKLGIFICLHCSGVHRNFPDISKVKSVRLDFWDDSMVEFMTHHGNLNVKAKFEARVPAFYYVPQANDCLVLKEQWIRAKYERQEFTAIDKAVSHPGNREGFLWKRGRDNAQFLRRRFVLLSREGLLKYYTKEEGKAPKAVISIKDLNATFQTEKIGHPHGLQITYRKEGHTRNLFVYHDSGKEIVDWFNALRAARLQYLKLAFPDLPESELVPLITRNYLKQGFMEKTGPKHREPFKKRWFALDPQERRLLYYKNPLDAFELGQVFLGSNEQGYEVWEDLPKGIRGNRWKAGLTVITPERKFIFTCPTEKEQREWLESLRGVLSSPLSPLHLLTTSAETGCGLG
UniProt Q8R3K3: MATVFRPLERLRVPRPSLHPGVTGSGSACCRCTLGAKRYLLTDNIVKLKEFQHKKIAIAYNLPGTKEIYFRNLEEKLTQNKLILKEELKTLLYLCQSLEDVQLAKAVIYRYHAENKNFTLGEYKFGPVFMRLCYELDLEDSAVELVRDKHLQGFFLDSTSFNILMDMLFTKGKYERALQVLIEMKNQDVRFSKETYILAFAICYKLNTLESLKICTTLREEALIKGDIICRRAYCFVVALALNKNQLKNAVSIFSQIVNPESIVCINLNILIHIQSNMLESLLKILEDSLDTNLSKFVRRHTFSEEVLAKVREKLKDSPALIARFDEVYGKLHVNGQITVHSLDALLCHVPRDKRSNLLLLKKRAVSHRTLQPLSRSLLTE
UniProt Q8VC56: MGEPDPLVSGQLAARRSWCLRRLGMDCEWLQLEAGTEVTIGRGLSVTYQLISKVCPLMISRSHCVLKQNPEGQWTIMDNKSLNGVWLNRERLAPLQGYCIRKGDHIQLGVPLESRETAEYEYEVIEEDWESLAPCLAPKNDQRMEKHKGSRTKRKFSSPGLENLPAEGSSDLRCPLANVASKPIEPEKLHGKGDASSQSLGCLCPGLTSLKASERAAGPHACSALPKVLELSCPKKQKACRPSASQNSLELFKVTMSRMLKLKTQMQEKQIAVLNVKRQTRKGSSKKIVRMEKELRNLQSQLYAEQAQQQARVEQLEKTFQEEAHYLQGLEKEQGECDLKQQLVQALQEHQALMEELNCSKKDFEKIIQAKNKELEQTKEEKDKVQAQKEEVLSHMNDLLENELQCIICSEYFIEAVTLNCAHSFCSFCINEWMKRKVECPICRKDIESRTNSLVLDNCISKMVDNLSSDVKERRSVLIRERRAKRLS
UniProt Q8R404: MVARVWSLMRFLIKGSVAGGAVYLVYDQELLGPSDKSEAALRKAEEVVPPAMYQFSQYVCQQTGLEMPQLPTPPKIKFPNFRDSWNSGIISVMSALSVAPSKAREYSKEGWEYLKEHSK
UniProt Q8VD66: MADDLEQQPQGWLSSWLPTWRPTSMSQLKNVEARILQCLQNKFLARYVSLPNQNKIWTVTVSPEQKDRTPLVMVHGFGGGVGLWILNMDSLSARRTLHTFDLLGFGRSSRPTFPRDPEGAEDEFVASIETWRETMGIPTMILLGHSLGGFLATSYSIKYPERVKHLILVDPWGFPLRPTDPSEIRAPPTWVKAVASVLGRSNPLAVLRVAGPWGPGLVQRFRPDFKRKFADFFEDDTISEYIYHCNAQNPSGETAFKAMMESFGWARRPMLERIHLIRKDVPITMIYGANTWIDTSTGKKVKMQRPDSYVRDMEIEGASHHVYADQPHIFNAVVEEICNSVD
UniProt Q8VDK1: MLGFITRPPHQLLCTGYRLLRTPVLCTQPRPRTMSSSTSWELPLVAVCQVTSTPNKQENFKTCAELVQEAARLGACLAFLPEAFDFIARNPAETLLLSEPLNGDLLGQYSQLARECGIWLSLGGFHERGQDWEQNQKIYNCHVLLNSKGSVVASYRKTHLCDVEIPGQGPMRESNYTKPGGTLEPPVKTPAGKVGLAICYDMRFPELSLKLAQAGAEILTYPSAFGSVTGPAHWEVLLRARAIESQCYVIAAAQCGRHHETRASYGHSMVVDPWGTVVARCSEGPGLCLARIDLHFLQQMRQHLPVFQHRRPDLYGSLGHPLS
UniProt Q8VCD5: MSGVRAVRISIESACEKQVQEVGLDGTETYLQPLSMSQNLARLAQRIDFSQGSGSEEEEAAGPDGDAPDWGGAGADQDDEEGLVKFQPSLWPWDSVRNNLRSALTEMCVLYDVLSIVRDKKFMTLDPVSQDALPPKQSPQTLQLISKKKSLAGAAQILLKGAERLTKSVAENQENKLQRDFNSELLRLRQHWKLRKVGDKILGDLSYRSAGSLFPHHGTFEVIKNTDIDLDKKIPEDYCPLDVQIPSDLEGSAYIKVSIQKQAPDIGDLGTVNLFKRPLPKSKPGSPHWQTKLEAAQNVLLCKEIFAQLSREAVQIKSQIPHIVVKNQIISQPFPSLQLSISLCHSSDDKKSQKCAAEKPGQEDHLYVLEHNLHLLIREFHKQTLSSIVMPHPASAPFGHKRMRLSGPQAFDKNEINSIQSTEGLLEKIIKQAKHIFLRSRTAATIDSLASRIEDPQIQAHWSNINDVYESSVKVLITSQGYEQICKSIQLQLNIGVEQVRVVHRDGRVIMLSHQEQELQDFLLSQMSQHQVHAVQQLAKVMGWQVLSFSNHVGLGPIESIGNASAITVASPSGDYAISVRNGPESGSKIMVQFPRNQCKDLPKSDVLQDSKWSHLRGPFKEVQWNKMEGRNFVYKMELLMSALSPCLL

This is one part of the list. Small differences around the control level are noise.

Compound in the assay: CN[C@@H]1C[C@H]2O[C@@](C)([C@@H]1OC)n1c3ccccc3c3c4c(c5c6ccccc6n2c5c31)C(=O)NC4 [staurosporine]
Put plainly: log2 fold change of tryptic peptide abundance, ligand vs vehicle (limited proteolysis) (log2 ratio); higher = more trypsin-susceptible (destabilized). As to conditions: ligand concentration: 20 uM; sample: mouse liver crude lysate; replicate design: treated separately.
Turning to “UniProt Q8R2V2 (peptide sequence: DDLGSNIHLLK, peptide start residue: 45)”, the log2 fold change came to 0.376.
On to “UniProt Q8VBX0 (peptide sequence: LHETALHHAAK, peptide start residue: 181)”, for which the log2 fold change was 0.318.
With “UniProt Q8R3P6 (peptide sequence: HLVLPIALNK, peptide start residue: 271)”, the log2 fold change came to 0.773.
Consider “UniProt Q8VD57 (peptide sequence: KVLSGQDTEDR, peptide start residue: 6)”, for which the log2 fold change was -0.174.
Under “UniProt Q8R3V5 (peptide sequence: HMLDLQK, peptide start residue: 270)” stands 0.23.
Consider “UniProt Q8VEE0 (peptide sequence: NVCSEAAQKR, peptide start residue: 215)”, for which the log2 fold change is 0.135.
With “UniProt Q8R3B1 (peptide sequence: CFSIVFKDQR, peptide start residue: 96)”, the log2 fold change is -0.265.
Under “UniProt Q8R5M8 (peptide sequence: DFRPLKDSR, peptide start residue: 91)” stands 0.114.
In the case of “UniProt Q8VCY6 (peptide sequence: KDEIEYSMVHR, peptide start residue: 81)”, the log2 fold change was found to be 0.111.
Turning to “UniProt Q8VCT3 (peptide sequence: QHMNVSGEENPLNK, peptide start residue: 381)”, the log2 fold change is -0.466.
With “UniProt Q8VDH1 (peptide sequence: EGIDQSYQLLR, peptide start residue: 399)”, the log2 fold change was -0.371.
For “UniProt Q8VCB2 (peptide sequence: GIHFSIVSPR, peptide start residue: 177)”, the log2 fold change was 0.355.
For the target “UniProt Q8R5A0 (peptide sequence: LSSPPQAEAIR, peptide start residue: 282)”, the log2 fold change amounted to 0.0514.
Regarding “UniProt Q8VCH7 (peptide sequence: FGVVGFHESLSHELK, peptide start residue: 215)”, the log2 fold change turned out to be 0.174.
Regarding “UniProt Q8R2V5 (peptide sequence: NFPDISKVK, peptide start residue: 54)”, the log2 fold change came out at 0.471.
On to “UniProt Q8R5C8 (peptide sequence: AWIPSENIQDITVNVHR, peptide start residue: 318)”, for which the log2 fold change amounted to 0.214.
On to “UniProt Q8VEC3 (peptide sequence: TFNILQHR, peptide start residue: 877)”, for which the log2 fold change amounted to 0.118.
Under “UniProt Q8VCM5 (peptide sequence: SCVFLECGHVCSCR, peptide start residue: 311)” stands 0.19.
As to “UniProt Q8VBX6 (peptide sequence: AAPFHSER, peptide start residue: 1793)”, the log2 fold change was -0.317.
Under “UniProt Q8R3K3 (peptide sequence: LKEFQHK, peptide start residue: 48)” stands -0.169.
Consider “UniProt Q8VC56 (peptide sequence: VLELSCPK, peptide start residue: 228)”, for which the log2 fold change is -0.222.
Regarding “UniProt Q8R404 (peptide sequence: EYSKEGWEYLKEHSK, peptide start residue: 105)”, the log2 fold change stood at 0.397.
The figure for “UniProt Q8VD66 (peptide sequence: TLHTFDLLGFGR, peptide start residue: 96)” is -0.378; for “UniProt Q8VBZ0 (peptide sequence: YLRDEAEAEPLGTAR, peptide start residue: 293)” it is -0.33.
Consider “UniProt Q8VDK1 (peptide sequence: ECGIWLSLGGFHER, peptide start residue: 115)”, for which the log2 fold change is -0.279.
Consider “UniProt Q8VE10 (peptide sequence: KVMLTVFK, peptide start residue: 170)”, for which the log2 fold change is 0.251.
The figure for “UniProt Q8R316 (peptide sequence: LDHPFYVK, peptide start residue: 298)” is 0.522; for “UniProt Q8VDJ3 (peptide sequence: KGAVITQIR, peptide start residue: 1071)” it is 0.116.
With “UniProt Q8VCD5 (peptide sequence: ISIESACEK, peptide start residue: 9)”, the log2 fold change was -0.119.
For “UniProt Q8VE65 (peptide sequence: IAGTPGTGGR, peptide start residue: 40)”, the log2 fold change was found to be 0.101.
On to “UniProt Q8R2U2 (peptide sequence: EKPLGFDLR, peptide start residue: 306)”, for which the log2 fold change was -0.171.
